Results are given in words; binding and its absence hold for the method and conditions named. Binding seen in cells or lysates may run through a third protein. These calls come from enrichment with a bait or labelling near it, and not all partners need be listed. Where a sequence is shown, tags or fusion partners need not be part of it.

The chains behind the UniProt entries cited, without tags or fusion partners.
UniProt Q15154: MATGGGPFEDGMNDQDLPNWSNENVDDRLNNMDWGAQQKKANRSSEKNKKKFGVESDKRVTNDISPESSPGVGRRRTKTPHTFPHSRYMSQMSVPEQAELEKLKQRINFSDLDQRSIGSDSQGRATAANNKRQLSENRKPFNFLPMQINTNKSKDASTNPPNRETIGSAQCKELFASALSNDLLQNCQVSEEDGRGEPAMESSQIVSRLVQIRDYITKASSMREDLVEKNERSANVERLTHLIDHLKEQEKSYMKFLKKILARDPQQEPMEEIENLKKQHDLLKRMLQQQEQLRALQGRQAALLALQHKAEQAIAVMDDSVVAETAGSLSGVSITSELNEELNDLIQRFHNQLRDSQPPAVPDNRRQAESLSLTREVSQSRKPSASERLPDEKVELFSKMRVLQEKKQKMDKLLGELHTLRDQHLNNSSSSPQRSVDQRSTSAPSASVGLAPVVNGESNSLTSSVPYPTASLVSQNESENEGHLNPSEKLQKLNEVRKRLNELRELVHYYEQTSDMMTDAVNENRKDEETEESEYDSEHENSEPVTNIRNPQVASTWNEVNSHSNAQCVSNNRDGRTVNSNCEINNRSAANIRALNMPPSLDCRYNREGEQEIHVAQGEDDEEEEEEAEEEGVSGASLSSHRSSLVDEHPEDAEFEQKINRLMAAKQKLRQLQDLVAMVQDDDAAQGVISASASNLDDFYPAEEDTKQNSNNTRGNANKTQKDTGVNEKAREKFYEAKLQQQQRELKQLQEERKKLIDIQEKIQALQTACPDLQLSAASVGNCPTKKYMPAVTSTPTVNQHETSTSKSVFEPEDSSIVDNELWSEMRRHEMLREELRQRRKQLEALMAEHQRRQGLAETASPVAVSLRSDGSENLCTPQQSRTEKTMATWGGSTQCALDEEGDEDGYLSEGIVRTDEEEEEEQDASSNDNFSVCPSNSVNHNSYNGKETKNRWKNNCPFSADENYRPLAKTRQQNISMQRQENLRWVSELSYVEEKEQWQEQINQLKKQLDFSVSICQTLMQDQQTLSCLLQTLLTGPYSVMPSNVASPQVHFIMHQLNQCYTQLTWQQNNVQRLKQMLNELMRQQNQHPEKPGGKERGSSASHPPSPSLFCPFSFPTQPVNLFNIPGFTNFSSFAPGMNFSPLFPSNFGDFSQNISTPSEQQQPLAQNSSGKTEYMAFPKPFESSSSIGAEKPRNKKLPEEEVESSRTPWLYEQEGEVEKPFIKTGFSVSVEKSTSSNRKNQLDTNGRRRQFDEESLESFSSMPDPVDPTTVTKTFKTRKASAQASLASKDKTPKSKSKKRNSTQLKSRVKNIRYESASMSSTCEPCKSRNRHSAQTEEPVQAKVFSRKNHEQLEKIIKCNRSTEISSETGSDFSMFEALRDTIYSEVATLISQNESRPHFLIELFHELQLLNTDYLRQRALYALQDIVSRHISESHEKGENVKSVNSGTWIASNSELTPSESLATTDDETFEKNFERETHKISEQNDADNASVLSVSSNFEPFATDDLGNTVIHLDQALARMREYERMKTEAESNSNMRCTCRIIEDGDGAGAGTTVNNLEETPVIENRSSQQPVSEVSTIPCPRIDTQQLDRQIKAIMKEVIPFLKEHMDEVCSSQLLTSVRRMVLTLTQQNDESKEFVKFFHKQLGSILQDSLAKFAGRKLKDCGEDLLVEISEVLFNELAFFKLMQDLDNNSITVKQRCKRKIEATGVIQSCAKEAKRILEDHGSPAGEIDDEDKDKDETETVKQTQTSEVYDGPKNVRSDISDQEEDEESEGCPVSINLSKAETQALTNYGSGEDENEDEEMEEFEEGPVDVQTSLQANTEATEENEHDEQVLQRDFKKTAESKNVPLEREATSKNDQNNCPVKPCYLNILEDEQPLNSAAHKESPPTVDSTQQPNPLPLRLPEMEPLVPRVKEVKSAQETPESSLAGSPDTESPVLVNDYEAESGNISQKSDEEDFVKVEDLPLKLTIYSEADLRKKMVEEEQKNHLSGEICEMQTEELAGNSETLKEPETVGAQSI

The assay addresses T1, eGFP-Kif9 (HCT116 cells stably expressing eGFP-Kif9) (human) (UniProt Q9HAQ2).
T1 sequence: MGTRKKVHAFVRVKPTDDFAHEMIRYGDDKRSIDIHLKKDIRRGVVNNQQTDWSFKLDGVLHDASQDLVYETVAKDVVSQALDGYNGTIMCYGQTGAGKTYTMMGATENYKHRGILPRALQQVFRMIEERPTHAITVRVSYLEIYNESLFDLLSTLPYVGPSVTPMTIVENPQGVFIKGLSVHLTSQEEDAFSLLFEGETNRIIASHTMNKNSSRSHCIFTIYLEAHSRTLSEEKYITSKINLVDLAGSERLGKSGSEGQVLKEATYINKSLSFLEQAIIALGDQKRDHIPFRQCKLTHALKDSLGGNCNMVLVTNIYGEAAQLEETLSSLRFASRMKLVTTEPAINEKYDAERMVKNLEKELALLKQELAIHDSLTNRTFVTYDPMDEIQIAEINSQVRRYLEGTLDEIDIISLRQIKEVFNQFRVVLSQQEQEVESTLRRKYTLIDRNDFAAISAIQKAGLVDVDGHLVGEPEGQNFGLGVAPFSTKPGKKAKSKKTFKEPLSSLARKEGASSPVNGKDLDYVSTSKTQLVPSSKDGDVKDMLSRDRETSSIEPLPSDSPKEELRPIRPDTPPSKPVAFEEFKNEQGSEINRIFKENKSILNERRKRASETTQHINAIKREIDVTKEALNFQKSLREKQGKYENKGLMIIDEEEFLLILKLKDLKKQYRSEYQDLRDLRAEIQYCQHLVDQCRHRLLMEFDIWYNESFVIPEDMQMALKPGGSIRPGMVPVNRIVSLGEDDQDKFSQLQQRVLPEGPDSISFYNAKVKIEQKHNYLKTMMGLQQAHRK
The experiment in a line: affinity purification with mass spectrometry.

As to “PCM1 (endogenous, HCT116) (from UniProt Q15154 1-2024)”, the binding entry is recorded as “binds”.

These data come from article doi:10.1101/2024.04.03.587821.
